Data as given in PubChem BioAssay AID1053208 (Peter MacCallum Cancer Centre, 2014)
Shown is an unselected part of about 17,000 reagents. Of all reagents, 788 (4.7%) are marked active. 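Calls rest on z-score classes alone; an extra cut-off of viability at most 70% of control was not applied to them.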 Unmarked entries are inactive.

Purpose: 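Find knock-downs that sensitise mouse osteosarcoma cells to doxorubicin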 (primary screen)
Cell system: mouse osteosarcoma cells, early-passage culture from an engineered mouse model of fibroblastic bone tumour
Reagents: siRNA pool against mouse genes, 40 nM
Duration: about 120 h (48 h before drug, then 72 h with drug)
Conditions: doxorubicin 100 nM for 72 h, roughly 30-40% inhibitory dose
Measurement: 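Viability read as ATP luminescence after 72 h of 100 nM doxorubicin or none, duplicate wells averaged, scaled to non-targeting siRNA, then expressed as robust z-scores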
Direction: viability z-score with doxorubicin and doxorubicin viability vs non-targeting: higher = more viable cells under doxorubicin; viability z-score without drug: higher = more viable cells with knock-down alone; z-score of drug to no-drug ratio: higher = less drug sensitisation by knock-down
Hit rule: 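Called active if knock-down leaves viability unchanged without drug (z within -2 to 2) but lowers it with doxorubicin (z at or under -2)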

gene,combined z-score class,viability z-score with doxorubicin,viability z-score without drug,z-score of drug to no-drug ratio,doxorubicin viability vs non-targeting
Ca4 (carbonic anhydrase 4),no change with or without drug,-1.69,0.34,-1.91,0.79
Capza3 (capping actin protein of muscle Z-line subunit alpha 3),no change with or without drug,0.79,-0.17,1.01,1.01
Ccdc106 (coiled-coil domain containing 106),no change with or without drug,0.9,1.18,0.22,1.02
Xdh (xanthine dehydrogenase),no change with or without drug,-1.69,-1.18,-0.9,0.79
Fcrl2 (Fc receptor like 2),low cell count with doxorubicin only (active),-2.36,-1.35,-1.57,0.73
Cbr2 (carbonyl reductase 2),no change with or without drug,-1.46,0.51,-1.69,0.81
Ankrd44 (ankyrin repeat domain 44),no change with or without drug,-1.8,-1.52,-0.79,0.78
Rnf20 (ring finger protein 20),no change with or without drug,-0.67,-0.51,-0.22,0.88
Plekhf2 (pleckstrin homology and FYVE domain containing 2),no change with or without drug,-1.8,0,-1.8,0.78
Ankfy1 (ankyrin repeat and FYVE domain containing 1),no change with or without drug,-0.22,-1.85,1.35,0.92
Cc2d2a (coiled-coil and C2 domain containing 2A),no change with or without drug,-1.57,-0.17,-1.46,0.8
"Ido1 (indoleamine 2,3-dioxygenase 1)",no change with or without drug,1.57,0.84,1.12,1.08
Mcrs1 (microspherule protein 1),no change with or without drug,0.9,1.01,0.34,1.02
Tm7sf3 (transmembrane 7 superfamily member 3),no change with or without drug,-0.11,0.17,-0.11,0.93
Slco2b1,no change with or without drug,0.56,0.17,0.56,0.99
Cdc5l (cell division cycle 5-like),low cell count without drug only,-1.57,-2.87,0.56,0.8
Sdf2 (stromal cell derived factor 2),high cell count with doxorubicin only,3.93,1.85,2.7,1.29
Ppp1cc (protein phosphatase 1 catalytic subunit gamma),no change with or without drug,0.45,-0.17,0.67,0.98
"Ppp1r3f (protein phosphatase 1, regulatory subunit 3F)",no change with or without drug,0.45,0,0.56,0.98
A530021J07Rik (Riken cDNA A530021J07 gene),low cell count with doxorubicin only (active),-2.7,-1.01,-2.14,0.7
Gpr101 (G protein-coupled receptor 101),no change with or without drug,1.12,1.18,0.45,1.04
Mrpl2 (mitochondrial ribosomal protein L2),no change with or without drug,0.9,-0.17,1.24,1.02
C1qtnf12 (C1q and tumor necrosis factor related 12),no change with or without drug,0.22,0.84,-0.22,0.96
9130230L23Rik (RIKEN cDNA 9130230L23 gene),no change with or without drug,1.12,1.35,0.34,1.04
Or51e1 (olfactory receptor family 51 subfamily E member 1),no change with or without drug,0.22,0.67,-0.11,0.96
Chst9 (carbohydrate sulfotransferase 9),no change with or without drug,0.9,1.52,0,1.02

The list goes on; the last 5 above are carried over.
gene,combined z-score class,viability z-score with doxorubicin,viability z-score without drug,z-score of drug to no-drug ratio,doxorubicin viability vs non-targeting
Mrpl2 (mitochondrial ribosomal protein L2),no change with or without drug,0.9,-0.17,1.24,1.02
C1qtnf12 (C1q and tumor necrosis factor related 12),no change with or without drug,0.22,0.84,-0.22,0.96
9130230L23Rik (RIKEN cDNA 9130230L23 gene),no change with or without drug,1.12,1.35,0.34,1.04
Or51e1 (olfactory receptor family 51 subfamily E member 1),no change with or without drug,0.22,0.67,-0.11,0.96
Chst9 (carbohydrate sulfotransferase 9),no change with or without drug,0.9,1.52,0,1.02
Trim41 (tripartite motif-containing 41),no change with or without drug,0.22,0.67,-0.11,0.96
"Zfyve27 (zinc finger, FYVE domain containing 27)",no change with or without drug,-1.12,1.01,-1.69,0.84
Adgrb2 (adhesion G protein-coupled receptor B2),no change with or without drug,-0.45,-0.51,0,0.9
Simc1 (SUMO-interacting motifs containing 1),no change with or without drug,1.12,1.85,0,1.04
Ppm1l (protein phosphatase 1 (formerly 2C)-like),no change with or without drug,0.79,-0.34,1.24,1.01
Mindy4 (MINDY lysine 48 deubiquitinase 4),no change with or without drug,-0.45,0.17,-0.45,0.9
"Lrrn2 (leucine rich repeat protein 2, neuronal)",low cell count without drug only,-1.01,-2.19,0.67,0.85
Ccdc47 (coiled-coil domain containing 47),no change with or without drug,1.35,1.52,0.45,1.06
Dzip1 (DAZ interacting protein 1),no change with or without drug,0.9,1.85,-0.22,1.02
Prr5 (proline rich 5 (renal)),no change with or without drug,-1.8,-0.84,-1.24,0.78
"Araf (Araf proto-oncogene, serine/threonine kinase)",no change with or without drug,0.9,-0.51,1.46,1.02
Spata6l (spermatogenesis associated 6 like),no change with or without drug,-1.12,-0.17,-1.01,0.84
Zfhx3 (zinc finger homeobox 3),no change with or without drug,-1.24,-0.34,-1.01,0.83
Cntn4 (contactin 4),no change with or without drug,1.91,1.18,1.24,1.11
Dnajc16 (DnaJ heat shock protein family (Hsp40) member C16),no change with or without drug,-0.45,0.34,-0.56,0.9
Zfp696 (zinc finger protein 696),no change with or without drug,0,0.17,0,0.94
Dpf1 (double PHD fingers 1),no change with or without drug,-0.67,-0.84,0,0.88
Trpc6,no change with or without drug,-1.35,0.17,-1.46,0.82
Nfu1 (NFU1 iron-sulfur cluster scaffold),no change with or without drug,1.69,1.52,0.79,1.09
Cenpu (centromere protein U),no change with or without drug,-0.9,1.01,-1.46,0.86
Tmem127 (transmembrane protein 127),no change with or without drug,0.56,1.52,-0.34,0.99
Arf2 (ARF GTPase 2),no change with or without drug,-0.67,-1.52,0.45,0.88
Exoc6 (exocyst complex component 6),no change with or without drug,1.24,0.51,1.01,1.05
Trmt10a (tRNA methyltransferase 10A),no change with or without drug,-0.9,-1.18,0,0.86
